# No constants are given. Whether binding was seen depends on the method and setting. Binding seen in cells or lysates may run through a third protein. Some binding calls cover weakened binding; strength is not graded here.
# Amino acid sequences for entries named in this document (tags omitted).
# UniProt Q01196: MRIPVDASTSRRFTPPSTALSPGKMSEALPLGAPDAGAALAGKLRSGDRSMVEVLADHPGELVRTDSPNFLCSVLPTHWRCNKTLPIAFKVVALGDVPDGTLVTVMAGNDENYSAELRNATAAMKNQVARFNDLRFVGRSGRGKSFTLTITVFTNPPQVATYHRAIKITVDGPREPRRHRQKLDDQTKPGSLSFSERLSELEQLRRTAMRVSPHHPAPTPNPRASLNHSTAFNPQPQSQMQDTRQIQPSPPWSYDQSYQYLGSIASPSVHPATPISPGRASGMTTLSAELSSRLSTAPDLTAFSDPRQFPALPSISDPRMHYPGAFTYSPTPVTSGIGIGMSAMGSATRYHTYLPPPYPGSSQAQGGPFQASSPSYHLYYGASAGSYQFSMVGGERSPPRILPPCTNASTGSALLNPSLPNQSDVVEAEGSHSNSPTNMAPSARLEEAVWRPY
# UniProt Q96EB6: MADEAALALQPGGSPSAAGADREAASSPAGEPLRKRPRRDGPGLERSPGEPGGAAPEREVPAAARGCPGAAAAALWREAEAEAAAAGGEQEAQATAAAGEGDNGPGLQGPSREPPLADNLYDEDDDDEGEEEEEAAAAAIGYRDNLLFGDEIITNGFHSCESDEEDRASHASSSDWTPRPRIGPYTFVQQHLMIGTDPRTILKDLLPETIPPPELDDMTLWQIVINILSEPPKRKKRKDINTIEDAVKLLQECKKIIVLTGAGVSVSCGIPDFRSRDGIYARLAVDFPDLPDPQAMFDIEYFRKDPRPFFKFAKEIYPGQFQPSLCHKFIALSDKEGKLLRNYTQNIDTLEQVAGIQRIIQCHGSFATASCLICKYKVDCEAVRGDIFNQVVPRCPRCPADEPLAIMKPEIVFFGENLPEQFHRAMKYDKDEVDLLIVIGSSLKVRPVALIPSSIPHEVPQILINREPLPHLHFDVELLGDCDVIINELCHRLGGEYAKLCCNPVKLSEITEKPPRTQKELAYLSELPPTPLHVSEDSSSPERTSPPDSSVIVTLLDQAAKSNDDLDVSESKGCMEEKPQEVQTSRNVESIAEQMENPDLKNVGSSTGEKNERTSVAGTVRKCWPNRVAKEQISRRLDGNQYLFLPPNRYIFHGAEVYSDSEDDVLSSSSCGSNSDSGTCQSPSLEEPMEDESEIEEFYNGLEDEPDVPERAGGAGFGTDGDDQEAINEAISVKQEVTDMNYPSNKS
# T1: FOSL2 (human (endogenous in Th17 cells)) (UniProt P15408)
# T1 sequence: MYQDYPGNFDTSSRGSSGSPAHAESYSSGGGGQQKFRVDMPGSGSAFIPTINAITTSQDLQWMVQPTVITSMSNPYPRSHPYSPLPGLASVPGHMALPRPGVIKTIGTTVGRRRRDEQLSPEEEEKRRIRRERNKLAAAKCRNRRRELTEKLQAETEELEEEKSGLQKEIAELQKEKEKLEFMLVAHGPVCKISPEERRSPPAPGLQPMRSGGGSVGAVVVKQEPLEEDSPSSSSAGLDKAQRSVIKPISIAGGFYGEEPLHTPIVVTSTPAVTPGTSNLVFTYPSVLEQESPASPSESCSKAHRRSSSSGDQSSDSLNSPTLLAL
# T2: FOSL1 (human (endogenous in Th17 cells)) (UniProt P15407)
# T2 sequence: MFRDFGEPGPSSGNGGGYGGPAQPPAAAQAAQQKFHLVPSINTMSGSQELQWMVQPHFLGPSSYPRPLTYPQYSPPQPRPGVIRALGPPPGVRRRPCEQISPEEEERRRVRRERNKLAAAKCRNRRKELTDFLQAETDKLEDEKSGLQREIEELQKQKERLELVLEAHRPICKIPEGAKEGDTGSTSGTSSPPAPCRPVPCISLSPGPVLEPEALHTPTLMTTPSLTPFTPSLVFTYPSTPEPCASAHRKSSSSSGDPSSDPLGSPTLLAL
# T3: FOSL2 (human (endogenous in Th17 cells)), P15408
# T3 chain: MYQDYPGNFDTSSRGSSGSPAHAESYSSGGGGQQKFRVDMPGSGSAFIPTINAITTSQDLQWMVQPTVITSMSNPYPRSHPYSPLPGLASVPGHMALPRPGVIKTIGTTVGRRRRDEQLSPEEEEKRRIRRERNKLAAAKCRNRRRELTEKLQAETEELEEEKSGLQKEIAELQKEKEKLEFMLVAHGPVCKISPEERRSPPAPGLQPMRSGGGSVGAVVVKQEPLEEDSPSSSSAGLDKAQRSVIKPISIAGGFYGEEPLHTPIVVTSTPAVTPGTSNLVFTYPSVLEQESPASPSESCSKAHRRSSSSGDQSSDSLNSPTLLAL
# T4: FOSL1 (human (endogenous in Th17 cells)), P15407
# T4 chain: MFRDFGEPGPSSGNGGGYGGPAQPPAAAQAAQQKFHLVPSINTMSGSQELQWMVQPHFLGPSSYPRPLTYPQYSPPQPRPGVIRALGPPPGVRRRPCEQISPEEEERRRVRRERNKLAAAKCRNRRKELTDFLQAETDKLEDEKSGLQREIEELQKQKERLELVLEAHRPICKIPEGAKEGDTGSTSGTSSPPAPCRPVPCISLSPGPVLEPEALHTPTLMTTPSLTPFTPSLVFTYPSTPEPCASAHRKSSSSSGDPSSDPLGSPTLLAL
# Tests used:
# Assay in all cases: co-IP
# [1] = target: T1, FOSL2 (human (endogenous in Th17 cells))
# [2] = target: T2, FOSL1 (human (endogenous in Th17 cells))
# [3] = target: T3, FOSL2 (human (endogenous in Th17 …)); conditions: remark: other sources report otherwise
# [4] = target: T4, FOSL1 (human (endogenous in Th17 …)); conditions: remark: other sources report otherwise
binding [1],binding [2],binding [3],binding [4],Molecule
binds,binds,,,RUNX1 (from UniProt Q01196 1-453)
binds,binds,,,SIRT-1 (from UniProt Q96EB6)
,,binds,,"JUN, P05412 1-331 (protein) MTAKMETTFYDDALNASFLPSESGPYGYSNPKILKQSMTLNLADPVGSLKPHLRAKNSDLLTSPDVGLLKLASPELERLIIQSSNGHITTTPTPTQFLCPKNVTDEQEGFAEGFVRALAELHSQNTLPSVTSAAQPVNGAGMVAPAVASVAGGSGSGGFSASLHSEPPVYANLSNFNPGALSSGGGAPSYGAAGLAFPAQPQQQQQPPHHLPQQMPVQHPRLQALKEEPQTVPEMPGETPPLSPIDMESQERIKAERKRMRNRIAASKCRKRKLERIARLEEKVKTLKAQNSELASTANMLREQVAQLKQKVMNHVNSGCQLMLTQQLQTF"
,,,binds,"JUNB, P17275 1-347 (protein) MCTKMEQPFYHDDSYTATGYGRAPGGLSLHDYKLLKPSLAVNLADPYRSLKAPGARGPGPEGGGGGSYFSGQGSDTGASLKLASSELERLIVPNSNGVITTTPTPPGQYFYPRGGGSGGGAGGAGGGVTEEQEGFADGFVKALDDLHKMNHVTPPNVSLGATGGPPAGPGGVYAGPEPPPVYTNLSSYSPASASSGGAGAAVGTGSSYPTTTISYLPHAPPFAGGHPAQLGLGRGASTFKEEPQTVPEARSRDATPPVSPINMEDQERIKVERKRLRNRLAATKCRKRKLERIARLEDKVKTLKAENAGLSSTAGLLREQVAQLKQKVMTHVSNGCQLLLGVKGHAF"
binds,,,,"JUNB (protein, UniProt P17275 1-347) MCTKMEQPFYHDDSYTATGYGRAPGGLSLHDYKLLKPSLAVNLADPYRSLKAPGARGPGPEGGGGGSYFSGQGSDTGASLKLASSELERLIVPNSNGVITTTPTPPGQYFYPRGGGSGGGAGGAGGGVTEEQEGFADGFVKALDDLHKMNHVTPPNVSLGATGGPPAGPGGVYAGPEPPPVYTNLSSYSPASASSGGAGAAVGTGSSYPTTTISYLPHAPPFAGGHPAQLGLGRGASTFKEEPQTVPEARSRDATPPVSPINMEDQERIKVERKRLRNRLAATKCRKRKLERIARLEDKVKTLKAENAGLSSTAGLLREQVAQLKQKVMTHVSNGCQLLLGVKGHAF"
